Measurements reported in PubChem BioAssay AID686938 (Drosophila RNAi Screening Center, 2013).
In all, the deposit lists about 23,000 reagents; this is a random part of those with a known target gene and a result. In the full data, 75 (0.33%) are marked active. 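Raw plate signals without normalisation; calls rest on plate z-scores that were not deposited; ratio present for only 364 wells.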 Reagents against one gene are numbered here. A plus sign joins genes that one reagent is predicted to hit. Not given: the dose of the treatment.

- Test: 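Looking for CRAC channel components and the factors controlling them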 (primary screen)
- Cell system: Drosophila S2R+ cells
- Reagent: long dsRNA against Drosophila genes, about 0.25 µg dsRNA per well, roughly 10,000 cells
- Duration: 5 days of knock-down before the calcium assay
- Treatment: thapsigargin (SERCA pump blocker) to empty calcium stores; entry signal taken 4 min after adding it
- Detection: 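Per-well fluo-4 fluorescence in two replicates, unnormalised, measured in resting cells and 4 min after store depletion by the SERCA blocker thapsigargin; ratio of the two present in few wells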
- Reading the numbers: calcium entry signal: higher = stronger calcium signal after store depletion; resting calcium signal: higher = higher resting calcium signal
- Active means: 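Hit if the duplicate-averaged plate z-score for entry over resting signal is under −3; wells with weak total dye signal (Fmax z < −2) or more than 5 off-targets removed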
- Meaning of the calls: active = strongly reduced calcium entry; inactive = no strong reduction

Target gene | reagent | calcium entry signal, replicate 1 (fluorescence units) | calcium entry signal, replicate 2 (fluorescence units) | resting calcium signal, replicate 1 (fluorescence units) | resting calcium signal, replicate 2 (fluorescence units) | Call
CG3534 | 1 | 2.99e7 | 4.48e7 | 1.42e7 | 5.94e7 | inactive
CG18190 | 1 | 4.14e7 | 3.69e7 | 1.71e7 | 1.96e7 | inactive
CG17782 | 1 | 3.76e7 | 5.71e7 | 2.06e7 | 2.42e7 | inactive
CG17782 | 2 | 3.64e7 | 3.96e7 | 1.70e7 | 1.73e7 | inactive
roq | 1 | 3.84e7 | 4.79e7 | 1.69e7 | 3.04e7 | inactive
Ypel | 1 | 3.95e7 | 4.28e7 | 1.83e7 | 1.91e7 | inactive
CG6763 | 1 | 3.51e7 | 5.13e7 | 1.92e7 | 2.18e7 | inactive
CG11843 | 1 | 3.48e7 | 6.06e7 | 1.81e7 | 2.27e7 | inactive
CG12567 | 1 | 4.24e7 | 4.09e7 | 2.30e7 | 1.95e7 | inactive
Drsl1 | 1 | 3.95e7 | 2.74e7 | 2.46e7 | 1.44e7 | inactive
TwdlS | 1 | 2.54e7 | 4.04e7 | 1.41e7 | 1.79e7 | inactive
Nelf-A | 1 | 4.76e7 | 4.10e7 | 2.24e7 | 1.84e7 | inactive
CG3857 | 1 | 2.91e7 | 3.77e7 | 1.36e7 | 1.72e7 | inactive
CG14756 | 1 | 3.20e7 | 4.44e7 | 1.56e7 | 1.93e7 | inactive
Tmtc3 | 1 | 4.46e7 | – | 2.09e7 | – | inactive
CG6244 | 1 | 5.39e7 | 6.57e7 | 2.41e7 | 2.43e7 | inactive
CG4042 | 1 | 2.60e7 | 4.85e7 | 1.37e7 | 2.13e7 | inactive
eIF3k | 1 | 2.59e7 | – | 1.43e7 | – | inactive
Ogg1 | 1 | 2.97e7 | 3.23e7 | 1.38e7 | 1.40e7 | inactive
CG17364 | 1 | 3.18e7 | 2.77e7 | 1.81e7 | 1.37e7 | inactive
CG17364 | 2 | 2.69e7 | 5.04e7 | 1.46e7 | 2.72e7 | inactive
CG17364 | 3 | 3.28e7 | 3.93e7 | 1.42e7 | 1.63e7 | inactive
Prosalpha4T2 | 1 | 4.16e7 | 5.54e7 | 2.09e7 | 2.38e7 | inactive
mRpL30 | 1 | 4.72e7 | 5.42e7 | 2.17e7 | 2.18e7 | inactive
CG32982 | 1 | 2.63e7 | 2.90e7 | 1.55e7 | 1.62e7 | inactive
CG32982 | 2 | 2.71e7 | 3.50e7 | 1.25e7 | 1.39e7 | inactive
CG32982 | 3 | 2.41e7 | 4.84e7 | 1.61e7 | 2.27e7 | inactive
CG32982 | 4 | 4.03e7 | 5.63e7 | 1.75e7 | 2.44e7 | inactive
CG32982 | 5 | 3.19e7 | 3.97e7 | 1.62e7 | 2.21e7 | inactive
CG40551 (retired record) | 1 | 4.30e7 | 3.61e7 | 2.12e7 | 1.71e7 | inactive
TwdlM | 1 | 1.86e7 | 3.46e7 | 1.24e7 | 1.45e7 | inactive
Or67d | 1 | 1.65e7 | 3.07e7 | 1.02e7 | 1.27e7 | inactive
eIF4E1 | 1 | 3.16e7 | 2.86e7 | 2.81e7 | 1.60e7 | inactive
Arp53D | 1 | 3.78e7 | 4.89e7 | 1.92e7 | 2.28e7 | inactive
CG5026 | 1 | 4.35e7 | 2.74e7 | 2.89e7 | 1.23e7 | inactive
daed | 1 | 3.41e7 | – | 1.66e7 | – | inactive
Taf10b + Taf10 | 1 | 3.55e7 | 4.07e7 | 1.62e7 | 1.64e7 | inactive
CG14253 | 1 | 3.15e7 | 5.09e7 | 1.64e7 | 2.07e7 | inactive
Exo70 | 1 | 2.30e7 | 3.43e7 | 1.04e7 | 1.40e7 | inactive
Grl62a | 1 | 3.48e7 | 4.06e7 | 1.68e7 | 1.87e7 | inactive
zyd | 1 | 4.68e7 | 4.39e7 | 2.31e7 | 2.05e7 | inactive
oc | 1 | 3.89e7 | 3.94e7 | 2.11e7 | 1.97e7 | inactive
Bet1 | 1 | 1.61e7 | 2.81e7 | 9.75e6 | 1.45e7 | inactive
CG2120 | 1 | 2.98e7 | 3.98e7 | 1.52e7 | 1.89e7 | inactive
Vha68-3 | 1 | 4.72e7 | 3.10e7 | 2.18e7 | 1.62e7 | inactive

Next part, starting with the last 8 of the part before.
Target gene | reagent | calcium entry signal, replicate 1 (fluorescence units) | calcium entry signal, replicate 2 (fluorescence units) | resting calcium signal, replicate 1 (fluorescence units) | resting calcium signal, replicate 2 (fluorescence units) | Call
CG14253 | 1 | 3.15e7 | 5.09e7 | 1.64e7 | 2.07e7 | inactive
Exo70 | 1 | 2.30e7 | 3.43e7 | 1.04e7 | 1.40e7 | inactive
Grl62a | 1 | 3.48e7 | 4.06e7 | 1.68e7 | 1.87e7 | inactive
zyd | 1 | 4.68e7 | 4.39e7 | 2.31e7 | 2.05e7 | inactive
oc | 1 | 3.89e7 | 3.94e7 | 2.11e7 | 1.97e7 | inactive
Bet1 | 1 | 1.61e7 | 2.81e7 | 9.75e6 | 1.45e7 | inactive
CG2120 | 1 | 2.98e7 | 3.98e7 | 1.52e7 | 1.89e7 | inactive
Vha68-3 | 1 | 4.72e7 | 3.10e7 | 2.18e7 | 1.62e7 | inactive
CG10013 | 1 | 3.79e7 | 5.04e7 | 1.67e7 | 2.26e7 | inactive
Ror | 1 | 3.13e7 | 3.30e7 | 1.45e7 | 1.55e7 | inactive
lncRNA:CR41601 | 1 | 3.00e7 | 4.39e7 | 1.44e7 | 2.32e7 | inactive
PEK | 1 | 2.62e7 | 2.76e7 | 1.37e7 | 1.58e7 | inactive
CG13527 | 1 | 3.95e7 | 5.22e7 | 2.00e7 | 2.31e7 | inactive
Sk2 | 1 | 3.56e7 | 2.24e7 | 2.55e7 | 1.04e7 | inactive
Fam92 | 1 | 4.33e7 | – | 2.10e7 | – | inactive
CG42340 | 1 | 2.98e7 | 5.15e7 | 1.51e7 | 2.32e7 | inactive
CG42340 | 2 | 2.86e7 | 4.40e7 | 1.39e7 | 2.13e7 | inactive
CG42340 | 3 | 2.60e7 | 3.68e7 | 1.36e7 | 1.80e7 | inactive
CG42340 | 4 | 3.63e7 | 4.41e7 | 2.01e7 | 1.91e7 | inactive
Ddrgk1 | 1 | 4.83e7 | 4.07e7 | 2.27e7 | 1.71e7 | inactive
Mpcp1 | 1 | 5.43e7 | 4.99e7 | 2.16e7 | 2.38e7 | inactive
Ack-like | 1 | 3.89e7 | 3.34e7 | 1.82e7 | 1.72e7 | inactive
Ack-like | 2 | 1.83e7 | 3.62e7 | 9.36e6 | 1.68e7 | inactive
CG14882 | 1 | 3.26e7 | 2.62e7 | 1.57e7 | 1.28e7 | inactive
Vta1 | 1 | 3.81e7 | 7.64e7 | 2.00e7 | 3.40e7 | inactive
Vta1 | 2 | 2.57e7 | 3.14e7 | 1.24e7 | 1.45e7 | inactive
inaF-C | 1 | 2.81e7 | 2.99e7 | 1.50e7 | 1.36e7 | inactive
Ir54a + sub | 1 | 3.94e7 | 5.02e7 | 1.90e7 | 2.47e7 | inactive
Brd | 1 | 4.71e7 | 6.78e7 | 2.21e7 | 2.38e7 | inactive
Sil1 | 1 | 3.81e7 | 3.34e7 | 1.72e7 | 1.44e7 | inactive
HBS1 | 1 | 3.67e7 | 3.22e7 | 1.55e7 | 1.42e7 | inactive
CG5386 | 1 | 5.42e7 | 5.99e7 | 4.79e7 | 3.15e7 | inactive
Ada2b | 1 | 4.48e7 | 3.21e7 | 2.31e7 | 1.71e7 | inactive
CG1138 | 1 | 3.41e7 | 2.89e7 | 1.68e7 | 1.33e7 | inactive
jing | 1 | 4.89e7 | 3.89e7 | 2.48e7 | 1.88e7 | inactive
jing | 2 | 3.28e7 | 5.92e7 | 1.74e7 | 2.47e7 | inactive
jing | 3 | 3.63e7 | – | 1.67e7 | – | inactive
HmgD | 1 | 2.15e7 | – | 1.15e7 | – | inactive
